Assay results taken from patent publication US8119766 (UNIVERSITY OF IOWA RESEARCH FOUNDATION, dated 2012).
Results are given in words; binding and its absence hold for the method and conditions named. For some of these results: In cells and extracts the contact can be indirect. Some binding calls cover weakened binding; strength is not graded here. For some of these results: Tags and fused reporters may be left off the sequences shown.

Amino acid sequences for entries named in this document (tags omitted). A change or cut given only in a name is not applied to a line headed by its entry.
UniProt P19137: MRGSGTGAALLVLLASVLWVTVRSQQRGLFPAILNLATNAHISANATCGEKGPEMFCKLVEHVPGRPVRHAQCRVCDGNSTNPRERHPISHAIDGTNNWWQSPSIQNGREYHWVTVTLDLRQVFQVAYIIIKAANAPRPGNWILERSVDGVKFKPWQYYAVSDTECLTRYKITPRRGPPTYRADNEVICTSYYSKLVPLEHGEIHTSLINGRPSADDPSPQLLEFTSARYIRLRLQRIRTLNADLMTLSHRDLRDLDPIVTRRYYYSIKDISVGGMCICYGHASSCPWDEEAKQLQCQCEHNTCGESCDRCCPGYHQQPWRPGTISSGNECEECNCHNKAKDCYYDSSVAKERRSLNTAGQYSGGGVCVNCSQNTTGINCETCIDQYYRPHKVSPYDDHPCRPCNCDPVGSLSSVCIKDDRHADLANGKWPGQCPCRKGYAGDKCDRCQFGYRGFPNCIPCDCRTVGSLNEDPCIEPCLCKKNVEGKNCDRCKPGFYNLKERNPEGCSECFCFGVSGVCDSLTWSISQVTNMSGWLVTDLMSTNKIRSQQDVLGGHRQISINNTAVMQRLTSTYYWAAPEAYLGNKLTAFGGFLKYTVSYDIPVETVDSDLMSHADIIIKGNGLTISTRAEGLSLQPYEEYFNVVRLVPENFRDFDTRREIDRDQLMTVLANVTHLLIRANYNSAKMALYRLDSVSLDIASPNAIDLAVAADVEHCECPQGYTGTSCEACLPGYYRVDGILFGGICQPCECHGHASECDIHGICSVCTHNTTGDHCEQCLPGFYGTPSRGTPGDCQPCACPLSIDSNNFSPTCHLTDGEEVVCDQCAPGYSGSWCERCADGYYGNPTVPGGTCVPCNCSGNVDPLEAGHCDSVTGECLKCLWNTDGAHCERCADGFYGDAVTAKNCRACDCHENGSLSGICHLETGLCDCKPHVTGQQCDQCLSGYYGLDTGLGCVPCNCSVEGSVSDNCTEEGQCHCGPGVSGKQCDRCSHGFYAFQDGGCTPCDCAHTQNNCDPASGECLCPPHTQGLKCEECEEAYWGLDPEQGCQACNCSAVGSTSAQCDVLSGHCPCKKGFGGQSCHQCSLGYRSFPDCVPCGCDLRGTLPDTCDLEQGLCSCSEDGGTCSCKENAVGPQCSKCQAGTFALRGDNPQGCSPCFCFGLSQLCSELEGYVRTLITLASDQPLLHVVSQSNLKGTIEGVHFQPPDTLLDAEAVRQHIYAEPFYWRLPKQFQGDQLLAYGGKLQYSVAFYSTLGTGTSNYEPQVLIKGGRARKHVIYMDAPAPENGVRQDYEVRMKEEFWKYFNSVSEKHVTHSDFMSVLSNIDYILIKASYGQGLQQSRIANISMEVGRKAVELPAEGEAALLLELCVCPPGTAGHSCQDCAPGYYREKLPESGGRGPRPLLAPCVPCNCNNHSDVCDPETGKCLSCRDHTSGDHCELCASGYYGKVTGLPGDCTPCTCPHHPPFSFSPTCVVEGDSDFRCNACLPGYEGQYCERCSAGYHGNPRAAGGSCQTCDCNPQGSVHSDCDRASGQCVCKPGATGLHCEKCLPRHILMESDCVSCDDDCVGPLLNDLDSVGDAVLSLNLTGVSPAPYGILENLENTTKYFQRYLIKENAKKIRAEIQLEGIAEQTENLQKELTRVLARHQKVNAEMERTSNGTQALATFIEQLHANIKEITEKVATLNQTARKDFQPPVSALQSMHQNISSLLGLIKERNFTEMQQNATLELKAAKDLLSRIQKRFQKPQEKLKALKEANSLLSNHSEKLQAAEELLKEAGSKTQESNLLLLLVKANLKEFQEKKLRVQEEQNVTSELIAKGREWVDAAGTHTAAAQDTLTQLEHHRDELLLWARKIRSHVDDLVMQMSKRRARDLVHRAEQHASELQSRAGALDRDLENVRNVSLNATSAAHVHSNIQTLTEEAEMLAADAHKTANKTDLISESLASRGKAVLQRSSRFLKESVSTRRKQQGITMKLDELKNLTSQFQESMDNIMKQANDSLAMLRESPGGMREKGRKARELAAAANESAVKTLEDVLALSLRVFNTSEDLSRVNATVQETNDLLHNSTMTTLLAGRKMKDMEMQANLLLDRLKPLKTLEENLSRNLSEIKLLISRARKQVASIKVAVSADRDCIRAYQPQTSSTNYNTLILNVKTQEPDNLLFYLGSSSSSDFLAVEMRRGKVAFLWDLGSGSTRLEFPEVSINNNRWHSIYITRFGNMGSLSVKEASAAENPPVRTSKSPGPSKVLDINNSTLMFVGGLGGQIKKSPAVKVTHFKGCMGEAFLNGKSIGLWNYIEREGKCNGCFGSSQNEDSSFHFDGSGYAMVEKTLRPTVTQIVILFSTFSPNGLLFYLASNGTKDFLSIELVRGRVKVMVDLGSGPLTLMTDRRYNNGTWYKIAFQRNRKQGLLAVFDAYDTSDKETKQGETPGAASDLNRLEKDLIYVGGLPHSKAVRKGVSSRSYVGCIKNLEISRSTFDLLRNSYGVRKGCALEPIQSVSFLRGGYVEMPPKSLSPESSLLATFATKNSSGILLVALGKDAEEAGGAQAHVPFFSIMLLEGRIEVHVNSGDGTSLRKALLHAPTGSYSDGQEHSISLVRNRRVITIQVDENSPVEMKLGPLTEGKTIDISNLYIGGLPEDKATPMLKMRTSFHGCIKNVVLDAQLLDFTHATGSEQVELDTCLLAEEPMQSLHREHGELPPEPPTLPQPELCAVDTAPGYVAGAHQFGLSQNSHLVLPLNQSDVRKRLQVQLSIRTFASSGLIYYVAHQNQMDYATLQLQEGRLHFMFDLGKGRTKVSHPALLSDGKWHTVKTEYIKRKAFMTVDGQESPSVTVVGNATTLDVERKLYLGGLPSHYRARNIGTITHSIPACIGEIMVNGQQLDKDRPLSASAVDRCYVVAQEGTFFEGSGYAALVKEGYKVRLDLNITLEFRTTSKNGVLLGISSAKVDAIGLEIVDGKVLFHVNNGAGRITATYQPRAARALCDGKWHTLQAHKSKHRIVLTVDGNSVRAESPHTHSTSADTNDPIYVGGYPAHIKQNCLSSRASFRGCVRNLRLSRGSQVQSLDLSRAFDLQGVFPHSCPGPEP

Key:
DG-G [1] = molecular target: T1, DG-G (UniProt Q28685); assay: laminin overlay
T1 sequence (glycosylated; sites not stated, looked up): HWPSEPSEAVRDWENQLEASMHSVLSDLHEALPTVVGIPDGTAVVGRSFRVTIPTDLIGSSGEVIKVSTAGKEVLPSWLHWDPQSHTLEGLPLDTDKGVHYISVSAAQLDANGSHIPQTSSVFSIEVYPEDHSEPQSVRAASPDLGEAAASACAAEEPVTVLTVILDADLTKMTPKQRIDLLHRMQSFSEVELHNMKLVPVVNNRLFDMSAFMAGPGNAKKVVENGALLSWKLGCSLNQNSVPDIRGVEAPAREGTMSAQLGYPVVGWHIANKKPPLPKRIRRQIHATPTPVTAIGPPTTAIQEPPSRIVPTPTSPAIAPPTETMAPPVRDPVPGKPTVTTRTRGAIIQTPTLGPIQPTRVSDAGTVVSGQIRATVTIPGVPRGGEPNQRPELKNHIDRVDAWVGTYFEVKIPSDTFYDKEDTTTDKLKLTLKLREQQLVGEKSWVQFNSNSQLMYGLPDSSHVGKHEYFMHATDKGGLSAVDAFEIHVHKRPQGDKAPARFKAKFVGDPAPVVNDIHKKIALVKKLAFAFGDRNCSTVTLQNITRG

DG-WT [2] = molecular target: T2, DG-WT (UniProt Q28685); assay: laminin overlay
T2 sequence (glycosylated; sites not stated, looked up): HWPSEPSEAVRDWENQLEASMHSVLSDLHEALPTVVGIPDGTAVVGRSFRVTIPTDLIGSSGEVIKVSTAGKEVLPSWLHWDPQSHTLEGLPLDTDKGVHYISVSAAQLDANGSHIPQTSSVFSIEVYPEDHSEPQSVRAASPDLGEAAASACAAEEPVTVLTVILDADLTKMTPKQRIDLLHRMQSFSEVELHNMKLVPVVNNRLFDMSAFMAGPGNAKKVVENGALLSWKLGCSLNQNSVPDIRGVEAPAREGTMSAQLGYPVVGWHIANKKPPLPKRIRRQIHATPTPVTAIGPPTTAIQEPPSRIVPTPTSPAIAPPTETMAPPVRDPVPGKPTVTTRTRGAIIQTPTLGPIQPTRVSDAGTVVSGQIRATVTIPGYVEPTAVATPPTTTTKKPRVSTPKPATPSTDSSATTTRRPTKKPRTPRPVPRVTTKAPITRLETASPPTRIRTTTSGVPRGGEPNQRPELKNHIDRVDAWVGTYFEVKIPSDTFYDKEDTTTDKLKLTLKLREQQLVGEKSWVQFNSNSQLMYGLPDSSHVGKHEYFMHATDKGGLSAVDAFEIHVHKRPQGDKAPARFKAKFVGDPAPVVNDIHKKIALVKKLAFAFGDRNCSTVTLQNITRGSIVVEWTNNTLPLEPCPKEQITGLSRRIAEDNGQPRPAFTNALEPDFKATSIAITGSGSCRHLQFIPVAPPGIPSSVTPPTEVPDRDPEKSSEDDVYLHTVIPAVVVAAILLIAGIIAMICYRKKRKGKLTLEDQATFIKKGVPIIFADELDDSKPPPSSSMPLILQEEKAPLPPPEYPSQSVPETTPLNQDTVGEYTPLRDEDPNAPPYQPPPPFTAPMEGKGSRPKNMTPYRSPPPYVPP

DG-G [3] = molecular target: T1, DG-G; assay: blot overlay assay (FIG. 7C)
DG-WT [4] = molecular target: T2, DG-WT; assay: blot overlay assay (FIG. 7C)
DG-G [5] = molecular target: T1, DG-G; assay: restated in the in vivo section
DG-WT [6] = molecular target: T2, DG-WT; assay: restated in the in vivo section
[7] = molecular target: T3, α-DG from Large^myd mouse skeletal muscle treated with Ad5-LARGE/eGFP (mouse) (UniProt Q62165); assay: solid-phase laminin-binding assay (FIG. 1e)
T3 sequence (LARGE-induced glycosylation; sites not stated, looked up): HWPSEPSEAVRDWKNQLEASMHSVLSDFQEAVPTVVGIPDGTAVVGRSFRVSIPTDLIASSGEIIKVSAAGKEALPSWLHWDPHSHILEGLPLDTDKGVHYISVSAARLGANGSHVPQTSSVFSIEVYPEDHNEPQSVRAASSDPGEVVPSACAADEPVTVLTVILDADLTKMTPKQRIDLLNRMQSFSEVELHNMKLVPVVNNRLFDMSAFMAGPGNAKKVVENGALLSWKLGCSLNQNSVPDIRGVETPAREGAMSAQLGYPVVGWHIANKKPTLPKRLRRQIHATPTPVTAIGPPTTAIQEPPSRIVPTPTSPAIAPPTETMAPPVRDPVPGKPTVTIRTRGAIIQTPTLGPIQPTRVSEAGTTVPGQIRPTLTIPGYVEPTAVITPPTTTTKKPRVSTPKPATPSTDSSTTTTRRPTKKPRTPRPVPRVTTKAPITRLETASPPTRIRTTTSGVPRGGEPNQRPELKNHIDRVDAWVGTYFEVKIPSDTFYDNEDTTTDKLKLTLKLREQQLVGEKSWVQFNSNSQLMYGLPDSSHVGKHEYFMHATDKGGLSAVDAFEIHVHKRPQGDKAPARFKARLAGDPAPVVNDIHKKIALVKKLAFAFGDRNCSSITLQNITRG

[8] = molecular target: T4, α-DG from control mouse skeletal muscle treated with Ad5-LARGE/eGFP (mouse) (UniProt Q62165); assay: solid-phase laminin-binding assay (FIG. 1e)
T4 sequence (LARGE-induced hyperglycosylation; sites not stated, looked up): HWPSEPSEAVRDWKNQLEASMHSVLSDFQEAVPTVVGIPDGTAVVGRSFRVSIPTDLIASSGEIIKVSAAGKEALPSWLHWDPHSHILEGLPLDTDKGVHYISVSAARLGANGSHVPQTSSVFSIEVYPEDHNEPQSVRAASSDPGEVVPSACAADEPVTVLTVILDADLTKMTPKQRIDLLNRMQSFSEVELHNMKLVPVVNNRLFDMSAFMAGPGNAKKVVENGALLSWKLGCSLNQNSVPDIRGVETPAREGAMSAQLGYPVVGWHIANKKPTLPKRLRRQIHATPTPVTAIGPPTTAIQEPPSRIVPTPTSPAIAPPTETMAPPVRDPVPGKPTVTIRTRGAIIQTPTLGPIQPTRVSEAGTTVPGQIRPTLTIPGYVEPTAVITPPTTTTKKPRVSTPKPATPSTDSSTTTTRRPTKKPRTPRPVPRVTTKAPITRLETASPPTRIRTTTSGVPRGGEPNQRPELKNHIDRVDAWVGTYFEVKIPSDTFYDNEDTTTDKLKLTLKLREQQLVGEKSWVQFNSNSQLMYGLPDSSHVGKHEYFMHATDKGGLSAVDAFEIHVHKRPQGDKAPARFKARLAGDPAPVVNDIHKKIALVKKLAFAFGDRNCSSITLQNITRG

[9] = molecular target: T3, α-DG from Large^myd mouse skeletal muscle treated with Ad5-LARGE/eGFP (mouse); assay: ligand overlay on WGA-enriched muscle homogenate
[10] = molecular target: T4, α-DG from control mouse skeletal muscle treated with Ad5-LARGE/eGFP (mouse); assay: ligand overlay on WGA-enriched muscle homogenate
[11] = molecular target: T5, DGFc2 prepared from cell lysate (human); assay: pull-down on DGFc-protein A beads, anti-LARGE Western blot (FIG. 10B)
T5 sequence (looked up): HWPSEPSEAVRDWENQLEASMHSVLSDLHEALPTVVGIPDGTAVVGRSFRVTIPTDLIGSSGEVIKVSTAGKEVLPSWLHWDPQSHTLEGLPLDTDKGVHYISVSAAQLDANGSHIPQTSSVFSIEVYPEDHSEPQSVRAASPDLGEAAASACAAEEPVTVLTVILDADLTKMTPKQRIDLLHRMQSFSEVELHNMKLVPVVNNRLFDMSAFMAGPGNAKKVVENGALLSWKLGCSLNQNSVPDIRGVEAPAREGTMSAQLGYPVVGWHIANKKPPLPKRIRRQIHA

[12] = molecular target: T6, DGFc5 (CMK-treated, medium) (human); assay: as above
T6 sequence (glycosylated; sites not stated, looked up): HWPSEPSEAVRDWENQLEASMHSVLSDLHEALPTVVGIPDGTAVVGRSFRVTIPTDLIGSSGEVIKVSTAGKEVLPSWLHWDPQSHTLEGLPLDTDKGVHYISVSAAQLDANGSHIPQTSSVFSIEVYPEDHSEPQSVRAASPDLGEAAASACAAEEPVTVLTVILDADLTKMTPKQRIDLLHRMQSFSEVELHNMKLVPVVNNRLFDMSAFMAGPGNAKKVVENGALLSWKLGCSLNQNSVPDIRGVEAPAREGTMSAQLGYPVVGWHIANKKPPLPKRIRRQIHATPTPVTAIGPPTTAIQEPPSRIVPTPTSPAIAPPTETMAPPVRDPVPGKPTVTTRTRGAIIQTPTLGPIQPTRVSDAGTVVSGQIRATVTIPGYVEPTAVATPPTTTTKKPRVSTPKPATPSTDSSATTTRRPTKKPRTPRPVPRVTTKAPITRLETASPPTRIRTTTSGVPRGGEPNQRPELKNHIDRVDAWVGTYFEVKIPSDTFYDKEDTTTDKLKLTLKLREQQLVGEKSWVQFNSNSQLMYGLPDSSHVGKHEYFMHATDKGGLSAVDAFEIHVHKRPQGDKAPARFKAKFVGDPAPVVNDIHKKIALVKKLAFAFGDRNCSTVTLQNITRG

[13] = molecular target: T7, DGFc5 prepared from cell lysate (human); assay: as above
T7 sequence (looked up): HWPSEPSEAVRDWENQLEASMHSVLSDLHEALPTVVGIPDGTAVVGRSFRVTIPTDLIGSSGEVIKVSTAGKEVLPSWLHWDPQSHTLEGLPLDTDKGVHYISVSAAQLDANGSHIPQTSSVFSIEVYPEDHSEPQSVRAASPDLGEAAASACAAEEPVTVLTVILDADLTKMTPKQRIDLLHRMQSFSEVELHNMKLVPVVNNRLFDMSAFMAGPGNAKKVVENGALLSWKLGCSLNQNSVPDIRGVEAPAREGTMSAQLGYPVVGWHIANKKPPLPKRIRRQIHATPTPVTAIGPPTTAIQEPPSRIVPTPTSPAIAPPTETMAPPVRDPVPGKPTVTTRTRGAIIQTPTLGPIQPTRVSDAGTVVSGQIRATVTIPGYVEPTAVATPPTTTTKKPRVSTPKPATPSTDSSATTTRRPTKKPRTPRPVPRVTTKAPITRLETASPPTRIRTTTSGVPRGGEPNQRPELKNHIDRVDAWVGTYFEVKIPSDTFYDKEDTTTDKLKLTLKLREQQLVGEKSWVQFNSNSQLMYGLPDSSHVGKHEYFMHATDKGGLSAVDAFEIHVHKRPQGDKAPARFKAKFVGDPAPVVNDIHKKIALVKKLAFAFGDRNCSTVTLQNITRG

Measured: binding

laminin-1 (from UniProt P19137 25-3083; P02469 22-1786; P02468 34-1607) (ligand)
not listed: [11] | [12] | [13]
binds: all other assays above

B1: LARGE (enzyme, human, UniProt O95461 1-756, looked up)
chain: MLGICRGRRKFLAASLSLLCIPAITWIYLFSGSFEDGKPVSLSPLESQAHSPRYTASSQRERESLEVRMREVEEENRALRRQLSLAQGRAPSHRRGNHSKTYSMEEGTGDSENLRAGIVAGNSSECGQQPVVEKCETIHVAIVCAGYNASRDVVTLVKSVLFHRRNPLHFHLIADSIAEQILATLFQTWMVPAVRVDFYNADELKSEVSWIPNKHYSGIYGLMKLVLTKTLPANLERVIVLDTDITFATDIAELWAVFHKFKGQQVLGLVENQSDWYLGNLWKNHRPWPALGRGYNTGVILLLLDKLRKMKWEQMWRLTAERELMGMLSTSLADQDIFNAVIKQNPFLVYQLPCFWNVQLSDHTRSEQCYRDVSDLKVIHWNSPKKLRVKNKHVEFFRNLYLTFLEYDGNLLRRELFGCPSEADVNSENLQKQLSELDEDDLCYEFRRERFTVHRTHLYFLHYEYEPAADSTDVTLVAQLSMDRLQMLEAICKHWEGPISLALYLSDAEAQQFLRYAQGSEVLMSRHNVGYHIVYKEGQFYPVNLLRNVAMKHISTPYMFLSDIDFLPMYGLYEYLRKSVIQLDLANTKKAMIVPAFETLRYRLSFPKSKAELLSMLDMGTLFTFRYHVWTKGHAPTNFAKWRTATTPYRVEWEADFEPYVVVRRDCPEYDRRFVGFGWNKVAHIMELDVQEYEFIVLPNAYMIHMPHAPSFDITKFRSNKQYRICLKTLKEEFQQDMSRRYGFAALKYLTAENNS
binds: [11] | [12] | [13]
